In patent US20250277032A1:

Target: cynomolgus ILT3 (cynomolgus)
Experiment: flow cytometry histograms, antibody at 50 µg/ml

B1: 7A5 (antibody, V domains shown)
VH: EVKLVESGGGLVKPGGSLKLSCAASGFTFSSYAMSWVRQTPAKRLEWVATISSDGGNTYYTDSVKGRFTISRDNARNTLDLQMSSLRSEDTAMYYCARHDGRGALDYWGQGTSVTVSS
VL: DIQMTQTTSSLSASLGDRVTISCRASQDISNYLNWYQQKPDGTVKLLIYYTSRLHSGVPSRFSGSGSGTDYSLTISNLEQEDIATYFCQQGNTLPWTFGGGTKLEIK
B1 was tested, and the binding was “binds”.

These are yes or no findings as the source states them, for the method shown. Binding can be weak; no strength is given.
